The target of test [1] is T1, MPP8^1–729, C-terminally truncated MPP8, C-terminal double FLAG tag (mouse) (UniProt Q3TYA6).
T1 sequence: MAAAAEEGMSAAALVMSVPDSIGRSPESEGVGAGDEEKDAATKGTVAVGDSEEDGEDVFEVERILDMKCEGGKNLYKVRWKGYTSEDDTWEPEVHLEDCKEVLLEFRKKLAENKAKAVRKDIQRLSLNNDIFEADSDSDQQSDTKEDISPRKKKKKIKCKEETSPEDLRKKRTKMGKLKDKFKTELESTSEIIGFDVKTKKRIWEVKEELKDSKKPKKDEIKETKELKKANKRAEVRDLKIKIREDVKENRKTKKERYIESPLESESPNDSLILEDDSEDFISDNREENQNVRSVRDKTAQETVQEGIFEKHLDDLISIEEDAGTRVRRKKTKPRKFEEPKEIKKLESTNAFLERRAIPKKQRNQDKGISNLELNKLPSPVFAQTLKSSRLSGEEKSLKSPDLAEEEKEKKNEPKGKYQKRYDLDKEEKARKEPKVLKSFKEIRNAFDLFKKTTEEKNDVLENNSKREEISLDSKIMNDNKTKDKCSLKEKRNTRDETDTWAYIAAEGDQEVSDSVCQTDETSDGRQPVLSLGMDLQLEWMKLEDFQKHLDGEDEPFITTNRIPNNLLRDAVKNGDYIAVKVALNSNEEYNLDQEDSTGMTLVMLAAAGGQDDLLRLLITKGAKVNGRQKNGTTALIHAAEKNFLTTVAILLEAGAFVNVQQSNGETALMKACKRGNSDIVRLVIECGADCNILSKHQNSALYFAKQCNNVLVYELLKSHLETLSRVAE
The test can be described thus: affinity purification with mass spectrometry; FLAG M2 beads with lysates of Mpp8^mAID; OsTIR1 mESCs expressing double-FLAG MPP8 wt, 1-729 or 112-858, 500 µM IAA 12 h; IP300 buffer (50 mM Tris-HCl pH 7.5, 300 mM NaCl, 0.5% IGEPAL CA-630, 1 mM EDTA), 4 °C overnight; label-free LC-MS/MS; parental Mpp8^mAID cells as background.

Chains of the proteins cited; added tags and fusions are not shown.
UniProt Q69ZR9: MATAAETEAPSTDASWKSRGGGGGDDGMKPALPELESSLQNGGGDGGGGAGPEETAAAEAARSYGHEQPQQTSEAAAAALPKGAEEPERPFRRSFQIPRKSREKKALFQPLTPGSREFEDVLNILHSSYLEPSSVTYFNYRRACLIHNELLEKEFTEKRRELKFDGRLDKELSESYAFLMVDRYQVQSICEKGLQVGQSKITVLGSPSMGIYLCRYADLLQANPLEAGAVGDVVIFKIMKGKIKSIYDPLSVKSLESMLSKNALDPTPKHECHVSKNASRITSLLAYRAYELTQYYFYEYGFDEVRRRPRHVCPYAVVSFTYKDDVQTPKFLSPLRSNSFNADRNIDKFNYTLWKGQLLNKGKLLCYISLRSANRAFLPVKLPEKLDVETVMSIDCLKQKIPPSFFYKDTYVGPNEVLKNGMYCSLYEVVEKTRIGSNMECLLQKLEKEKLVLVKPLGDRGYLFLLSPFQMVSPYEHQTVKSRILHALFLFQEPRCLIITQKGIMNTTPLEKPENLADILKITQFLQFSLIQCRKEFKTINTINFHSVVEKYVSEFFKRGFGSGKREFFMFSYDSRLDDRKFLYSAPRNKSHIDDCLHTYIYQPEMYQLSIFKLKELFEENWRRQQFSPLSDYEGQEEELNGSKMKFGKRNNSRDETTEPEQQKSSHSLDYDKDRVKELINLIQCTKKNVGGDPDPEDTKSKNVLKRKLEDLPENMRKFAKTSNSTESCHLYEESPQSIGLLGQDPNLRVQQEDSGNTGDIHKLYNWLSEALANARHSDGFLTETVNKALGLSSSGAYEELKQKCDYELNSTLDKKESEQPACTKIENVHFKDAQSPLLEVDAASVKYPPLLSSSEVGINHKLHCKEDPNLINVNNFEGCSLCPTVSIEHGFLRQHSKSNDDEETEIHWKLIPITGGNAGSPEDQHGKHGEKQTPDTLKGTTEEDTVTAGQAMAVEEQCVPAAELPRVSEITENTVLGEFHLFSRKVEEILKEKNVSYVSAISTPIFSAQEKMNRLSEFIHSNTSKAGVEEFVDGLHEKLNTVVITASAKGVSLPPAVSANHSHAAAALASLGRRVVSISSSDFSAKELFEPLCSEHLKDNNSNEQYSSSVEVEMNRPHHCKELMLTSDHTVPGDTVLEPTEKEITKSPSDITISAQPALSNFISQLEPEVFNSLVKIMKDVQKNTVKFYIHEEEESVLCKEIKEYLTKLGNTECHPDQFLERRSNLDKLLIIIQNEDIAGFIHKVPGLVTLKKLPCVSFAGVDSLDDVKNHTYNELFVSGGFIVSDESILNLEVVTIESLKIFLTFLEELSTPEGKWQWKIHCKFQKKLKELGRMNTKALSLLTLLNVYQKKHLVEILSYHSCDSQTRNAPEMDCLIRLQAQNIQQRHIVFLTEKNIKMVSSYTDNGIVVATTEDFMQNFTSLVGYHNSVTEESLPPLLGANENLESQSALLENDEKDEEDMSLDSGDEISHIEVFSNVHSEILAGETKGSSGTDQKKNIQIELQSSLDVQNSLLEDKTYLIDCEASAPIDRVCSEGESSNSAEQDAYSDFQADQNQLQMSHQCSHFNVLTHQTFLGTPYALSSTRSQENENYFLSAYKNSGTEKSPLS
UniProt Q8BFQ4: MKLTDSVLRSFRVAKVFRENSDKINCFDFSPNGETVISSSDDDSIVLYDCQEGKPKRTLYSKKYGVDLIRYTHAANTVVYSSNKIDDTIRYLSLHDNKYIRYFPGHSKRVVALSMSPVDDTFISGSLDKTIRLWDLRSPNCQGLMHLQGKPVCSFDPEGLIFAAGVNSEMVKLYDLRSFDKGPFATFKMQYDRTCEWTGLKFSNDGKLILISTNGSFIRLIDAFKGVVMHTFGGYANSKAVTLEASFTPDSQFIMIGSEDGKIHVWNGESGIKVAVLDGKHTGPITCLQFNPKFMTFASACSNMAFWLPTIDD
UniProt Q61103: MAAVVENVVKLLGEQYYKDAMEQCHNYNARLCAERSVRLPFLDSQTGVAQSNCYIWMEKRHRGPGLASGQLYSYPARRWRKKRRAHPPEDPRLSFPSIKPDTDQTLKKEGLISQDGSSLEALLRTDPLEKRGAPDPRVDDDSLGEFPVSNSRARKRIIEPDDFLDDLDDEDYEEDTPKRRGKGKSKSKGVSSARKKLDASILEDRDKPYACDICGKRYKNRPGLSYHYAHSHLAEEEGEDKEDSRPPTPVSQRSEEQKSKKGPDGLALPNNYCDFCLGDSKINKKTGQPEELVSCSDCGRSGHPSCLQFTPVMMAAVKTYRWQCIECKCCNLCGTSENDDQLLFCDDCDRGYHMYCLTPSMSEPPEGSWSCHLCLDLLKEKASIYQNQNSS

Test [2] has as its target T2, MPP8 wild-type (M-Phase Phosphoprotein 8), ectopically expressed, C-terminal double FLAG tag (mouse) (UniProt Q3TYA6).
T2 sequence: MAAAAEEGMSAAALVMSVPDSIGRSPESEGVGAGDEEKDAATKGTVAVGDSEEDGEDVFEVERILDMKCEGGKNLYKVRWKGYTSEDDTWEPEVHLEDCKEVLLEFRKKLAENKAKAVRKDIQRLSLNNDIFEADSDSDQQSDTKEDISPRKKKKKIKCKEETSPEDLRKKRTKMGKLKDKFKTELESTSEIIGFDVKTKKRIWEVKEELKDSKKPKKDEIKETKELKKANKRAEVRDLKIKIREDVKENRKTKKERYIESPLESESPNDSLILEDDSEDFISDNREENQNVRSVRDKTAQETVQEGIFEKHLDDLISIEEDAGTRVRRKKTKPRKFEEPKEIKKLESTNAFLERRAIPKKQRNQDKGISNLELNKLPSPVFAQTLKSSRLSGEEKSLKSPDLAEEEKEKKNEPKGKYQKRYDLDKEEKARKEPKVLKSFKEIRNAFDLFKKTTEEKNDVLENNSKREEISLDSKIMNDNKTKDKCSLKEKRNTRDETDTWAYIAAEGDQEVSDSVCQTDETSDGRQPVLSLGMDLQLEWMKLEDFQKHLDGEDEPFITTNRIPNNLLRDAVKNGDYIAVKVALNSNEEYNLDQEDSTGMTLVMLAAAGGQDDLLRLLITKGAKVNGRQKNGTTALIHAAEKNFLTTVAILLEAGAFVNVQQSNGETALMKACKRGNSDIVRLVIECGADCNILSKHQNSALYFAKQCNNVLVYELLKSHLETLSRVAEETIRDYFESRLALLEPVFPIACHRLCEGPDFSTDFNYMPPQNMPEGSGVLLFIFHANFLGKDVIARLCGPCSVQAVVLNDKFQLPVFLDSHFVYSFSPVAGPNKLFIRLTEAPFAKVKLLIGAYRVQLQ
The test is described as above.

The target in test [3] is TASOR, endogenously tagged with a C-terminal double FLAG epitope (Tasor^Flag2) (mouse (endogenous in mESCs)) (UniProt Q69ZR9). The test can be described thus: affinity purification with mass spectrometry; FLAG pull-down (FLAG M2 beads, 4 °C overnight) from lysate of Tasor^Flag2 mESCs in IP300 buffer (50 mM Tris-HCl pH 7.5, 300 mM NaCl, 0.5% IGEPAL CA-630, 1 mM EDTA pH 8.0); parental untagged mESCs as background control; LC-MS/MS, label-free; volcano plot FDR = 0.05, s0 = 2; n = 2.

In test [4] the target is TASOR, bait of the purification of TASOR-associated proteins (mouse (endogenous in mESCs)) (UniProt Q69ZR9). The test can be described thus: affinity purification with mass spectrometry; TASOR-associated proteins purified (Supplementary Fig. 5a); cells, tag and conditions not given.

No constants are given. Whether binding was seen depends on the method and setting. Binding seen in cells or lysates may run through a third protein. A yes stands for co-enrichment or nearness to the bait. Other partners may have been found. For part of these data: No binding means not detected with the bait. For part of these data: Where a sequence is shown, tags or fusion partners need not be part of it.

Drawing on paper PMC8144423, this text covers binding for 8 molecules.

Take “TASOR (HUSH core complex member), endogenous (from UniProt Q69ZR9 1-1610)”: the binding entry is on record as “no binding” in test [1] and “binds” in test [2]. In the case of Wdr82 (from UniProt Q8BFQ4 1-313), in test [3], the binding result is recorded as “binds”. The same measure, in the same setting: under Dpf2 (from UniProt Q61103 1-391) stands “binds”.

B1: MPP8, found with purified TASOR (protein, UniProt Q3TYA6 1-858)
chain: MAAAAEEGMSAAALVMSVPDSIGRSPESEGVGAGDEEKDAATKGTVAVGDSEEDGEDVFEVERILDMKCEGGKNLYKVRWKGYTSEDDTWEPEVHLEDCKEVLLEFRKKLAENKAKAVRKDIQRLSLNNDIFEADSDSDQQSDTKEDISPRKKKKKIKCKEETSPEDLRKKRTKMGKLKDKFKTELESTSEIIGFDVKTKKRIWEVKEELKDSKKPKKDEIKETKELKKANKRAEVRDLKIKIREDVKENRKTKKERYIESPLESESPNDSLILEDDSEDFISDNREENQNVRSVRDKTAQETVQEGIFEKHLDDLISIEEDAGTRVRRKKTKPRKFEEPKEIKKLESTNAFLERRAIPKKQRNQDKGISNLELNKLPSPVFAQTLKSSRLSGEEKSLKSPDLAEEEKEKKNEPKGKYQKRYDLDKEEKARKEPKVLKSFKEIRNAFDLFKKTTEEKNDVLENNSKREEISLDSKIMNDNKTKDKCSLKEKRNTRDETDTWAYIAAEGDQEVSDSVCQTDETSDGRQPVLSLGMDLQLEWMKLEDFQKHLDGEDEPFITTNRIPNNLLRDAVKNGDYIAVKVALNSNEEYNLDQEDSTGMTLVMLAAAGGQDDLLRLLITKGAKVNGRQKNGTTALIHAAEKNFLTTVAILLEAGAFVNVQQSNGETALMKACKRGNSDIVRLVIECGADCNILSKHQNSALYFAKQCNNVLVYELLKSHLETLSRVAEETIRDYFESRLALLEPVFPIACHRLCEGPDFSTDFNYMPPQNMPEGSGVLLFIFHANFLGKDVIARLCGPCSVQAVVLNDKFQLPVFLDSHFVYSFSPVAGPNKLFIRLTEAPFAKVKLLIGAYRVQLQ
As for B1, in test [4], the binding result is “binds”.

B2: Cd2bp2 (protein, UniProt Q9CWK3 1-342)
chain: MPKRKVTFQGVGDEDGEDEISVPKKKLVDPVAAAGGPGSRFKGKHSLDSDEEDDDEEGSSKYDILASEDVEGQEAATLPSEGGVRITPFNLQEEMEEGHFDADGNYFLNQDAQIRDSWLDNIDWVRIKERPPDKHQVSDSEEEDSLGQTPMSAQALLEGLLELLLPRETVAGALRRLGARGGGKGSNSKGTGRPNSPQRLDRLSGLADQMVARGNLGVYQETRERLAMRLKGLGCRAQGSHDPTPPPSLDMFAEEVAEGELETPTPTQREEAESAGDGLMDVMWEYKWENTGDAELYGPFTSAQMQTWVSEGYFPDGVYCRKLDPPGGQFYNSKRIDFELYT
With B2, the binding result in test [3] was “binds”.

B3: Lrwd1 (protein, UniProt Q8BUI3 1-648)
chain: MAPLTPQLLLQRGRPKTDKLGKIQSLNLSGLQLLSEHLDPNLLGRLKKLRELDLSNNLLETLPANLGLSHLRILRCTNNQLGDVTALHQFPELEELNLEGNPFLTVSDNLKVSFLLPKLRKVNGKDTASTCSQVENLDRELMDRVTAHWQKFIATVSPEEETDKVRADFMRSAVRDVCYGPESLIEFTQWRVRMIAEELVASGGAQVQDAKVPVEHPQAAGASKFRAREVASKRPGKDPVTLPPSKRVRALPPAQAEGSPMGADGGQAALHLEPLHFLQCHSRNNSPKDLETQLWACAFEPAREEGHSRATSQTVATCGGEAVCVIDCQTGLVLHKYKVPGEEFFSVAWTALTVVTQAGHKKRWNMLAAAGLRGMVRLLHVRAGFCCSVIRAHKKAIATLCFSPSHETHLFTASYDKRIILWDIGVPNQDYKFQASQLLTLNCGSVPLRLCPVATCPDDFLLAGCEGGCYCWDVRLDQPQKQRVCEVNFIFSEDSKVSGQRVDGLAFVNEDVVASKGSGQGTIYLWSWSQTWAGRGRQSVLPVVILVRLQWSPTNLAYFSLSTCPGKNLVLCGDEEGSVWIYDVEHLLKEPPQATTLQPPTQILKWPQPTALGQPVTKTMINTVVANAAFTYLTALTDSNIVSIWRRC
On to B3, for which, in test [3], the binding result is listed as “binds”.

B4: ATF7IP (HUSH-associated member), endogenous (protein, UniProt Q7TT18 1-1306)
chain: MDSVEEPQKKVFKARKTMRASDRQQLDAVHRVKGELLRADGKLLNGSHENGDLDPTSPLENTDCIQDREEVNGIDGICFQSEESTTEWKETPCMPNVAVKNKQEDLNSEALSPSITCDLSSRVTTEPGSGSPASDNPGCGTPVSDNPASDNPASDNPASDNPDSGDLAAGELATTVQATGDSACEEPPSSDPSSSDPTSSEPSSSEPTCSEPISGDPVSEEAASHDLVSGDSTCSEPVSGEPVSHEAASSEPATSEPASDEPVARVVAACELAPGESALDDCAPSGDSQSDEPPSSEDSLPRSVCSGLASGELTPGELSVEPATDTVKPSSSAVCEAGPDPDKTEPSSNNSDDCPGKSEDDEHLDQIQSKDSCDEGNKVNSNVVEKEEPLETHSAIICSDLPPENTTKIAEDPIAEPALEEEAISSSMEVDQSEKDEHKSPAEPVAAVSEDPAEEDKEDTVVDNTDSMETDEIIPILEKLAPTEDELSCFSKASLLPVETSQDLEDKMEGSFGSPSKQESSENLPKEAFLVLSDEEDLSCGKDESEAVAQSKMSTPEGEKSEKDGKAEEEERVPAEEQPPVRNEFSRRKRSKSEDMDSVESKRRRYMDEEYEAEFQVKITAKGDINQKLQKVIQWLLQEKLCALQCAVFDKTLAELKTRVEKIECNKRHKAVLTELQAKIARLTKRFGAAKDDLKKRQESPPNPPISPGKPANDTNSNNNMTYRNAGTVRQLLESKRNVSEGPPPSFQTPVNTVSSASHATSTAVVSSQPKLQTSATSGSLPAAPLLPAPSTATVVATTQVPSGTPQPTISLQPLPVILHVPVAVTSQPQLLQSHPGTLVTNQPSGNVEFISVQSQPTVSGLTKNPVSLPPLPNPTKPNIPSVPSPSSIQRNSSTTAAPLGTTLAVQAVPTAHSIVQATRTSLPTVGPSGLYSSSSSRGPIQMKIPISTFSPPSSAEQNSSATPRIVTENQTNKTVDSSINKKAADSTSQSGKASSSDSSGVIDLTMDDEESGTTQDPKKISPPSSSTVSTSQPMSRPLQPILPAPPLQPSGVPTSGPSQATIHVLPTAPTTVNVTHRPVTQVTTRLPVPRAPANHQVVYTTLPAPTTQAPLRGTVMQAPAVRQVNPQNSVTVRVPQTTTYVVNNGLTLGSAGPQLTVHHRPPQVHNEPPRPLHPAPLPEAPQPQRLPPEAASTSLPQKPHLKLARVQSQNGIVLSWSVLEVDRSCATVDSYHLYAYHEEPSATVPSQWKKIGEVKALPLPMACTLTQFVSGSKYYFAVRAKDIYGRFGPFCDPQSTDVISSSQNS
B4: in test [2], the binding entry was “binds”.

B5: PPHLN1 (third HUSH core complex component), endogenous (protein, UniProt Q8K2H1 1-381)
chain: MWSEGRYDYDRLPRERVPPRSHPSDGYHRVVNVVPKRPPLLDKRPPLLDKRPPLLARPDEGGYSRYYSHVDCRVCDEGRSFSHDRRSGPSHSGDESGYRWLRDDHSTSRQPDYRDMRDGFRRKSFYSSHYSRDRSPHKRDAPFFRESPVGRKDSPHSRSGSSVSSRSYSPERSRTHSFHQSQHRKSSRVGASYKRQNEAIRGRGKERSIQSVKTSRDASPSSSSAVASSKALDKPSRLTEKELAEAESKWANETLEKSDESNLAEMNEFEAGSTAPLFIDQTEEPESNTVDGTELYEDSQLSNRSKAIASKTKEIEQVYRQDCETFGMVVKMLIEKDPSLEKSVQFALRQNLHEIGERCVEELKRFITEYDNSARDFGDPF
Take B5: in test [4], the binding entry was “binds”.
